Experimental data: PMC8079763 (2021)

Target: T1, GST tagged ecto-basigin (recombinant mouse basigin) (mouse (C57BL/6J)) (UniProt P18572)
T1 sequence: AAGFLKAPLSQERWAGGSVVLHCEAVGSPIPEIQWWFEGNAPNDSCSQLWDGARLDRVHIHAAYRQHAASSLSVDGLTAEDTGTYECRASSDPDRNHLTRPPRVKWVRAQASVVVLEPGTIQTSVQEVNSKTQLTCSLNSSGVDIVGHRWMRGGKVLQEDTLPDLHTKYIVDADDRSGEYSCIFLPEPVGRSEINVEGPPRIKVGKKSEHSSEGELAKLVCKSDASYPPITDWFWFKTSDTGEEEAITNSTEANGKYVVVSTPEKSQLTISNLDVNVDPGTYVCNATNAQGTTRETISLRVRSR
Assay: SPR; Biacore X100; recombinant mouse basigin (GST tagged) immobilised on CM5 chip by amine coupling; PyEBL regions as analytes; HBS-EP+ (10 mM HEPES pH 7.4, 150 mM NaCl, 3 mM EDTA, 0.05% P20); single-cycle kinetics, 1:1 binding model; both purified

Substance	binding
recombinant PyEBL R3-5 (G437-C717) (Plasmodium yoelii 17X) (domain or fragment)	no binding (tested: 1000 nM)
recombinant PyEBL R6, the C-terminal Cysteine-rich domain (C717-N788) (Plasmodium yoelii 17X) (domain or fragment)	no binding (tested: 1000 nM)

No constants are given. Whether binding was seen depends on the method and setting. Tags and fused reporters may be left off the sequences shown.
